Measurements reported in the supplement of paper PMC6411743.
± gives the standard deviation of the averaged measurements. This is a selection; strong and weak results do not stand in their true shares.

By UniProt entry, the sequences of proteins in these tests, tags left out. Where a name states a change or a piece, a line headed by the entry shows the natural chain unless it says otherwise.
UniProt P16219: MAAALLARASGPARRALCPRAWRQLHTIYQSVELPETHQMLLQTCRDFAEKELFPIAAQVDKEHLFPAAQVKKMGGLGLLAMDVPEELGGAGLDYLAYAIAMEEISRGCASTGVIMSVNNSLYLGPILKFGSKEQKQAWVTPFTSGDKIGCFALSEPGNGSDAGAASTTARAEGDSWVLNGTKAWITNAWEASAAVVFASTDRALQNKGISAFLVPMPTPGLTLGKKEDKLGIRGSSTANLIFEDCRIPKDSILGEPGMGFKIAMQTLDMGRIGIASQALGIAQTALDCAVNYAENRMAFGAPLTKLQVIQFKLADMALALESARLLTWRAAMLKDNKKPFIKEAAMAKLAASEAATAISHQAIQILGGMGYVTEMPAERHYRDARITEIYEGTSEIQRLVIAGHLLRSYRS
UniProt O95817, whole entry: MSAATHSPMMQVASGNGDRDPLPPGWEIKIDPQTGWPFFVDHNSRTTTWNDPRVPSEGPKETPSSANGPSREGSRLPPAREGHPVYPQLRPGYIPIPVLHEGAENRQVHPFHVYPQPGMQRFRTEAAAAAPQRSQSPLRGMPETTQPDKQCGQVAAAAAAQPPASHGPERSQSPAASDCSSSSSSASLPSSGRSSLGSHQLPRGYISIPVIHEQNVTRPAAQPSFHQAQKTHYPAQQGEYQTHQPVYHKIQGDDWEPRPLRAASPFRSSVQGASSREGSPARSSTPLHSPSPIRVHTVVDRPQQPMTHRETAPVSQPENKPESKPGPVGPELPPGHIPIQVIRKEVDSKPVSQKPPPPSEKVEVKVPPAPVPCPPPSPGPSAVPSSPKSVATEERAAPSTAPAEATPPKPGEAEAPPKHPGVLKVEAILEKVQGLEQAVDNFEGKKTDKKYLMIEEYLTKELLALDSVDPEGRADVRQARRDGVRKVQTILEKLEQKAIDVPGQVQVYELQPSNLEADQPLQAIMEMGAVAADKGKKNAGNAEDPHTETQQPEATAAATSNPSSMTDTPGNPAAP
UniProt P10599: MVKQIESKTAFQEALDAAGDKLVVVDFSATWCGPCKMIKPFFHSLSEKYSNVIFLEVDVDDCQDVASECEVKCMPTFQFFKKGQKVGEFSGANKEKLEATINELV
UniProt P15531, whole entry, looked up: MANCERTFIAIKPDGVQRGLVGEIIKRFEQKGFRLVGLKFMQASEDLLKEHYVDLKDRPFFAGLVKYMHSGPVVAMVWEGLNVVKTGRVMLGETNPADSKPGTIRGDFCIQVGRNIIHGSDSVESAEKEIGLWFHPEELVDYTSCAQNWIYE
UniProt P22392, whole entry, looked up: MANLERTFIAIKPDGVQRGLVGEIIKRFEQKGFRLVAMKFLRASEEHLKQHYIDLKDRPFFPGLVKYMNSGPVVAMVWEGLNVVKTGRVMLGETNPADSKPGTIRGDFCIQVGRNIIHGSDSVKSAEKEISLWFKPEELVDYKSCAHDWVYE
UniProt P07339: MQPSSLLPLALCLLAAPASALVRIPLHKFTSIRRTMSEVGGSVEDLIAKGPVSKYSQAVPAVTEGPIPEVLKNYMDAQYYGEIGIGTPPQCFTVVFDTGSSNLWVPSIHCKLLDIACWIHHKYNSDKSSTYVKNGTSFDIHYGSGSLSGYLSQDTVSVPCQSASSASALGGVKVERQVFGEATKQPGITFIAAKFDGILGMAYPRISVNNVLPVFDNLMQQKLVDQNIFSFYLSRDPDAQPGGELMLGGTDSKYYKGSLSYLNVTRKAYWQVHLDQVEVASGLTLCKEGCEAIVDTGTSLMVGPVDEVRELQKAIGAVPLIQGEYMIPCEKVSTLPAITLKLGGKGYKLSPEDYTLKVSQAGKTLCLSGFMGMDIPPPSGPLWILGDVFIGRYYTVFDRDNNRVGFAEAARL
UniProt P10747, whole entry: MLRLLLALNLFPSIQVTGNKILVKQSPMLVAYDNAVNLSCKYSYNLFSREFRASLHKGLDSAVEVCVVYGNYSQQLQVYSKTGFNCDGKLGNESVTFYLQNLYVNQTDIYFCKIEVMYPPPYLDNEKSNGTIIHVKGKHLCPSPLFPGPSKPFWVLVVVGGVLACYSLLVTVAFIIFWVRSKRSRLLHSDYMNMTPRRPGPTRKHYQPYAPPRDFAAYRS
UniProt P16435: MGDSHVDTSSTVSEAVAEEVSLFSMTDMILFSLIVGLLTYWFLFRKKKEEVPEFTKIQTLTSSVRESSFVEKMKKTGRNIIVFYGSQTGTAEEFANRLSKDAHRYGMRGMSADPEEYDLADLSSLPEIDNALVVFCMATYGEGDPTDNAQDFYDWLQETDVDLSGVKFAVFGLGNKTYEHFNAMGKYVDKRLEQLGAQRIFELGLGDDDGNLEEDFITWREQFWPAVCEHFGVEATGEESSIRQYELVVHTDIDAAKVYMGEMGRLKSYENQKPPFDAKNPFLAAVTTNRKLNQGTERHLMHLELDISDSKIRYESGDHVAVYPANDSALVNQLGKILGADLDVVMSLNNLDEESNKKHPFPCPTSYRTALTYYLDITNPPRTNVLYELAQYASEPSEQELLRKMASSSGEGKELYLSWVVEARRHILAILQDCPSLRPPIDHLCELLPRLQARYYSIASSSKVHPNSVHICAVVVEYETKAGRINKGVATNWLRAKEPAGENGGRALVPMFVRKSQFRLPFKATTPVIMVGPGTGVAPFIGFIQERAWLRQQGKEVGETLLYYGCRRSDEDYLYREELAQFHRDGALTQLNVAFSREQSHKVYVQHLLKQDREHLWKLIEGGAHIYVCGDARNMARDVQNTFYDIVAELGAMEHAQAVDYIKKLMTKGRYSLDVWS
UniProt O95881: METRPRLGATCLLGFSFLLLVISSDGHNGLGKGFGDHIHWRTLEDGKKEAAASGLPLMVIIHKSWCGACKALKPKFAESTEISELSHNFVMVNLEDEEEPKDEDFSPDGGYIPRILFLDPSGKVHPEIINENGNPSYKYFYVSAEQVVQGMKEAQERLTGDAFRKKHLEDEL
UniProt P13489: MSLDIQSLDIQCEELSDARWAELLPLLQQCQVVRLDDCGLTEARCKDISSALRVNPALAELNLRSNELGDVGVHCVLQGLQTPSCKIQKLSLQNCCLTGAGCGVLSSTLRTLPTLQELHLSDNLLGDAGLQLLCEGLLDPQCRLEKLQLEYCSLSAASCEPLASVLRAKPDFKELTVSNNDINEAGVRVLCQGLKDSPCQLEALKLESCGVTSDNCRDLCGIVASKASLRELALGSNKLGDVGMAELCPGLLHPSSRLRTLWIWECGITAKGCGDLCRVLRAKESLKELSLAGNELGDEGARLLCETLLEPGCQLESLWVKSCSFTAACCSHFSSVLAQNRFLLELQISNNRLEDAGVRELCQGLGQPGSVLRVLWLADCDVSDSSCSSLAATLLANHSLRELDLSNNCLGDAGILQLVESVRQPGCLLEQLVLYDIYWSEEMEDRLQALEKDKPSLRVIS
UniProt O95865: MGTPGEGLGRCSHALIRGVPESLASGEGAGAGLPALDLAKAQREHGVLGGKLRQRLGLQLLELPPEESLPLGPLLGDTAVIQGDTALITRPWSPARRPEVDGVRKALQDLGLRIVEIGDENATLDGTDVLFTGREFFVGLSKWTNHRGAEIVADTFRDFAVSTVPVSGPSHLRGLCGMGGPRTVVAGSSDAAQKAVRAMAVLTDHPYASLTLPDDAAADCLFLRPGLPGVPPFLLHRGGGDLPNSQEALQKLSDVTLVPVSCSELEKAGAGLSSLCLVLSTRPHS
UniProt P06396, whole entry: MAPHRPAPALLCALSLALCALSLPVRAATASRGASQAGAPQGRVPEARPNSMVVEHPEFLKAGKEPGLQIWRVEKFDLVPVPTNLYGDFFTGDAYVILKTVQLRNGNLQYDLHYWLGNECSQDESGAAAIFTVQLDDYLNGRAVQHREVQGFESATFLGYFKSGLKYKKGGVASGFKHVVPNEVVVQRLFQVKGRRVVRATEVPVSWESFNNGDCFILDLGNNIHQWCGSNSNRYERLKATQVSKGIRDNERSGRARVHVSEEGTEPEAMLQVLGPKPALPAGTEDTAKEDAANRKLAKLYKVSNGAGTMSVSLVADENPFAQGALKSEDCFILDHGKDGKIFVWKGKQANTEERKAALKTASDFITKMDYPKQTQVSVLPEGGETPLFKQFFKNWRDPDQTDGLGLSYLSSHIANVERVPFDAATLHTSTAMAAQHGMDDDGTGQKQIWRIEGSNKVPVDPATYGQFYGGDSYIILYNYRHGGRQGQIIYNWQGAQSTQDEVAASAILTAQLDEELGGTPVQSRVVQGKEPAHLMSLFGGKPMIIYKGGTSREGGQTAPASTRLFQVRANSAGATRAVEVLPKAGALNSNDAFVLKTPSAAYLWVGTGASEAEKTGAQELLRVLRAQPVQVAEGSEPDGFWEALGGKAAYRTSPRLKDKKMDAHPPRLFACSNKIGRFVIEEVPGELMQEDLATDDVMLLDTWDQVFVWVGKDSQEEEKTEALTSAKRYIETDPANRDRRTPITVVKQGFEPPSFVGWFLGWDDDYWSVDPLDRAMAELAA
UniProt O95816: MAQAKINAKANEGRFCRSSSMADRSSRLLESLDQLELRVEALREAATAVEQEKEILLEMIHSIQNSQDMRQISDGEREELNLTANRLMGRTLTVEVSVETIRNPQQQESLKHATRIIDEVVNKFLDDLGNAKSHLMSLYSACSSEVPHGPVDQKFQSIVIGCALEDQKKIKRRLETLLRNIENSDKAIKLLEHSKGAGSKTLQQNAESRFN
UniProt P0C7T5: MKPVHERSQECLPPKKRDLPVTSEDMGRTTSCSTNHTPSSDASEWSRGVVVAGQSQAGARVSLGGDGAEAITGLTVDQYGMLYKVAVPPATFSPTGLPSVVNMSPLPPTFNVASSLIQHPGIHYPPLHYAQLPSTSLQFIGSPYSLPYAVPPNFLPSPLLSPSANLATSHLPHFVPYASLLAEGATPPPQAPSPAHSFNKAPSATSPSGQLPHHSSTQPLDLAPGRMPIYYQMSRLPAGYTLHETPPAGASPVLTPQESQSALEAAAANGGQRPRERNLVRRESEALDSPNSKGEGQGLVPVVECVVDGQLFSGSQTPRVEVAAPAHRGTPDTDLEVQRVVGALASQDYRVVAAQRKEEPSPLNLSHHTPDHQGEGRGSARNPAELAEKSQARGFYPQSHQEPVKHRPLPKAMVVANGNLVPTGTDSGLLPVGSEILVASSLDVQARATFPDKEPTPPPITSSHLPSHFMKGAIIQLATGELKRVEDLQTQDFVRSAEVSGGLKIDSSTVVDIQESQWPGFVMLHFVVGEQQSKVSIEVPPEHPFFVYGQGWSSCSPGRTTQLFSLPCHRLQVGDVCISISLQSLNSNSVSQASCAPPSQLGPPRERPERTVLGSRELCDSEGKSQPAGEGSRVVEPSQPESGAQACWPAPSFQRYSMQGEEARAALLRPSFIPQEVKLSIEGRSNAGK
UniProt P10109: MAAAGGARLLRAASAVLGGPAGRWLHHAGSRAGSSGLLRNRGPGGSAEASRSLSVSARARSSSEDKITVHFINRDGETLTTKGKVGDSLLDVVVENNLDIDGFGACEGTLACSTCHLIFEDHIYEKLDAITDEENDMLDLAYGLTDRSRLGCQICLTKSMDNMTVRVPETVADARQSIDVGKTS
UniProt P13797: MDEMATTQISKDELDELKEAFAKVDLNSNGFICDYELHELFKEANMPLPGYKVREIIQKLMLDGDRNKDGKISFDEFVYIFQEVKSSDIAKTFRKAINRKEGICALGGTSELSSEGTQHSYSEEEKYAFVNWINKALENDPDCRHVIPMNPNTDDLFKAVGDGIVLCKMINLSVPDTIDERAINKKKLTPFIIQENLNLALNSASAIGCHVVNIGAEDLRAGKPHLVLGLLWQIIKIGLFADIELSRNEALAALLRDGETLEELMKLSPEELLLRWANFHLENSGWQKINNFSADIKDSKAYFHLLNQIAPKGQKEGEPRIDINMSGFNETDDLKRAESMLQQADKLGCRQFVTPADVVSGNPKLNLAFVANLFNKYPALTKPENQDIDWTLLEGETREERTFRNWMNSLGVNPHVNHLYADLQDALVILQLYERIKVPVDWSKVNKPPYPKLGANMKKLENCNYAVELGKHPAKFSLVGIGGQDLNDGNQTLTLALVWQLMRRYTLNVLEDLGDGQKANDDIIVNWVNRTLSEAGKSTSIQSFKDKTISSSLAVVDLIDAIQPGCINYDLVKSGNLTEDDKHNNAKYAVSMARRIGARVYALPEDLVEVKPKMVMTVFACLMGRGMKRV
UniProt O95801: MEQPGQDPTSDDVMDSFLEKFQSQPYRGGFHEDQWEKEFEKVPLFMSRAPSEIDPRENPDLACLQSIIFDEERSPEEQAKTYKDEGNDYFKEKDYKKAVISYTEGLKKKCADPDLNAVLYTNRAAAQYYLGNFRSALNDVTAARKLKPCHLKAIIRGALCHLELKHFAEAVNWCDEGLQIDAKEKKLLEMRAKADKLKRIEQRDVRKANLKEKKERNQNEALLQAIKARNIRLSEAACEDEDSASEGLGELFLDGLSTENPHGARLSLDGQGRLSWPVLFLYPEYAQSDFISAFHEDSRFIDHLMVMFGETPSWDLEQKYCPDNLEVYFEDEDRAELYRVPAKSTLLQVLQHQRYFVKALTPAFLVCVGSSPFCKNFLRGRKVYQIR

Compound: Nc1ncnc2c1ncn2[C@@H]1O[C@H](COP(=O)(O)OP(=O)(O)OP(=O)(O)O)[C@@H](O)[C@H]1O [adenosine triphosphate]
Assay: NP40-soluble protein abundance relative to vehicle (solubility fold change) (ratio); higher = more soluble protein in presence of ATP
Outline: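 Data come from three independent experiments in which Dounce-homogenised Jurkat crude lysate was treated at eight concentrations from 0.1 to 10 mM. Treatment ran 10 min at room temperature and then 3 min at 37 °C, after which 0.8% NP40 and benzonase were added for 60 min at 4 °C before ultracentrifugation. The supernatant underwent TMT labelling and LC-MS/MS, and vsn-normalised intensities were expressed as fold change against the detergent-processed vehicle in each replicate.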

Target	NP40-soluble protein abundance (concentration: 1mM)	NP40-soluble protein abundance (concentration: 2mM)	NP40-soluble protein abundance (concentration: 4mM)	NP40-soluble protein abundance (concentration: 6mM)	NP40-soluble protein abundance (concentration: 8mM)	NP40-soluble protein abundance (concentration: 10mM)
SNRPA1 (UniProt P09661)	0.961 ± 0.082	0.992 ± 0.044	0.987 ± 0.047	1.05 ± 0.077	1.02 ± 0.053	1 ± 0.045
UniProt P05771-2|P05771	0.963 ± 0.038	0.966 ± 0.025	0.93 ± 0.029	0.982 ± 0.072	0.929 ± 0.049	0.957 ± 0.027
ACADS (UniProt P16219)	1.07 ± 0.12	1.06 ± 0.058	1.01 ± 0.05	0.991 ± 0.11	1.04 ± 0.06	1.03 ± 0.046
BAG3 (UniProt O95817)	0.95 ± 0.18	0.922 ± 0.18	0.89 ± 0.17	0.905 ± 0.17	0.873 ± 0.12	0.806 ± 0.2
RRAS (UniProt P10301)	1.62 ± 0.67	1.03 ± 0.11	1.12 ± 0.13	1.05 ± 0.16	0.992 ± 0.12	1.04 ± 0.12
HSPA5 (UniProt P11021)	0.949 ± 0.06	0.903 ± 0.044	0.872 ± 0.02	0.953 ± 0.033	0.906 ± 0.021	0.901 ± 0.021
TXN (UniProt P10599)	1 ± 0.11	0.934 ± 0.024	0.914 ± 0.039	0.991 ± 0.042	0.905 ± 0.068	0.891 ± 0.04
NUDT14 (UniProt O95848)	1.05 ± 0.012	1.09 ± 0.075	1.09 ± 0.034	1.04 ± 0.052	1 ± 0.066	1.09 ± 0.1
P15531-2|P22392-2|Q32Q12 (UniProt Q32Q12+P22392+P15531)	0.945 ± 0.092	0.928 ± 0.058	0.897 ± 0.029	0.884 ± 0.073	0.901 ± 0.041	0.895 ± 0.052
HIST1H1C (UniProt P16403)	1.13 ± 0.13	1.04 ± 0.032	1.14 ± 0.073	1.2 ± 0.032	1.34 ± 0.11	1.39 ± 0.042
ISG15 (UniProt P05161)	0.984 ± 0.078	0.989 ± 0.048	0.955 ± 0.036	0.949 ± 0.079	1 ± 0.064	0.969 ± 0.044
UniProt P05362 and related entries	0.946 ± 0.078	0.935 ± 0.098	0.973 ± 0.028	0.981 ± 0.0033	0.934 ± 0.057	0.9368 ± 0.0052
CTSD (UniProt P07339)	0.97 ± 0.012	0.9718 ± 0.0087	0.962 ± 0.013	0.94 ± 0.074	0.945 ± 0.02	0.952 ± 0.027
UniProt P01733	1.06 ± 0.038	0.966 ± 0.083	1.1 ± 0.045	0.964 ± 0.049	1 ± 0.056	0.936 ± 0.03
UniProt P10747 and related entries	0.98 ± 0.019	0.961 ± 0.043	0.949 ± 0.02	1 ± 0.018	0.936 ± 0.038	0.934 ± 0.034
CRYZL1 (UniProt O95825)	1.04 ± 0.09	1.06 ± 0.078	1.03 ± 0.051	1.03 ± 0.097	1.06 ± 0.056	1.03 ± 0.071
POR (UniProt P16435)	1.05 ± 0.043	1.03 ± 0.04	1.01 ± 0.026	0.998 ± 0.07	1.02 ± 0.063	1 ± 0.041
LATS1 (UniProt O95835)	1.14 ± 0.036	1.16 ± 0.07	1.08 ± 0.073	1.15 ± 0.1	1.07 ± 0.15	1.16 ± 0.086
ARSB (UniProt P15848)	0.91 ± 0.025	0.931 ± 0.088	0.931 ± 0.057	0.8991 ± 0.0078	0.861 ± 0.011	0.976 ± 0.041
UniProt P11310 and related entries	0.953 ± 0.0033	0.946 ± 0.027	0.931 ± 0.03	0.959 ± 0.045	0.933 ± 0.012	0.925 ± 0.043

Laid out differently: results already given.
Target,NP40-soluble protein abundance (concentration: 1mM),NP40-soluble protein abundance (concentration: 2mM),NP40-soluble protein abundance (concentration: 4mM),NP40-soluble protein abundance (concentration: 6mM),NP40-soluble protein abundance (concentration: 8mM),NP40-soluble protein abundance (concentration: 10mM)
TXN (UniProt P10599),1 ± 0.11,0.934 ± 0.024,0.914 ± 0.039,0.991 ± 0.042,0.905 ± 0.068,0.891 ± 0.04
NUDT14 (UniProt O95848),1.05 ± 0.012,1.09 ± 0.075,1.09 ± 0.034,1.04 ± 0.052,1 ± 0.066,1.09 ± 0.1
P15531-2|P22392-2|Q32Q12 (UniProt Q32Q12+P22392+P15531),0.945 ± 0.092,0.928 ± 0.058,0.897 ± 0.029,0.884 ± 0.073,0.901 ± 0.041,0.895 ± 0.052

Continued:

Target	NP40-soluble protein abundance (concentration: 1mM)	NP40-soluble protein abundance (concentration: 2mM)	NP40-soluble protein abundance (concentration: 4mM)	NP40-soluble protein abundance (concentration: 6mM)	NP40-soluble protein abundance (concentration: 8mM)	NP40-soluble protein abundance (concentration: 10mM)
EPHX1 (UniProt P07099)	1.05 ± 0.18	1.03 ± 0.14	1.04 ± 0.15	0.948 ± 0.2	1.07 ± 0.12	1.01 ± 0.12
TXNDC12 (UniProt O95881)	0.953 ± 0.083	0.951 ± 0.018	0.913 ± 0.017	0.999 ± 0.052	0.948 ± 0.022	0.8716 ± 0.0075
GLUD1 (UniProt P00367)	0.955 ± 0.051	0.911 ± 0.055	0.9129 ± 0.0047	0.898 ± 0.048	0.9395 ± 0.0084	0.917 ± 0.037
RNH1 (UniProt P13489)	1.01 ± 0.093	0.965 ± 0.07	0.957 ± 0.071	0.946 ± 0.11	0.982 ± 0.075	0.938 ± 0.071
P4HB (UniProt P07237)	0.906 ± 0.07	0.951 ± 0.012	0.843 ± 0.087	0.9899 ± 0.0063	0.902 ± 0.026	0.906 ± 0.045
DDAH2 (UniProt O95865)	0.973 ± 0.041	0.961 ± 0.02	0.956 ± 0.019	0.997 ± 0.039	0.947 ± 0.034	0.926 ± 0.033
CYC1 (UniProt P08574)	0.988 ± 0.068	0.982 ± 0.048	0.941 ± 0.06	0.939 ± 0.065	0.967 ± 0.067	0.933 ± 0.024
NRAS (UniProt P01111)	1.03 ± 0.058	1.05 ± 0.033	1.06 ± 0.058	1.07 ± 0.034	1.03 ± 0.057	1.04 ± 0.03
UniProt P09525 and related entries	0.931 ± 0.038	0.961 ± 0.039	0.922 ± 0.048	0.906 ± 0.1	0.938 ± 0.057	0.896 ± 0.053
UniProt P05023 and related entries	1 ± 0.029	0.97 ± 0.026	0.963 ± 0.022	1 ± 0.028	0.968 ± 0.03	0.949 ± 0.04
HPRT1 (UniProt P00492)	0.949 ± 0.068	0.962 ± 0.029	0.934 ± 0.028	0.859 ± 0.12	0.922 ± 0.026	0.932 ± 0.018
UniProt P06756 and related entries	0.987 ± 0.082	0.994 ± 0.13	0.993 ± 0.064	1.04 ± 0.11	0.988 ± 0.076	0.958 ± 0.059
P00395 and related entries (UniProt Q8IVS2)	0.957 ± 0.15	0.952 ± 0.11	0.912 ± 0.069	0.837 ± 0.13	0.97 ± 0.07	0.941 ± 0.042
UniProt P06396-2	1.35 ± 0.2	1.4 ± 0.13	1.41 ± 0.18	1.44 ± 0.14	1.4 ± 0.13	1.4 ± 0.1
UniProt P02792 and related entries	0.934 ± 0.13	0.888 ± 0.13	0.846 ± 0.11	0.922 ± 0.24	0.935 ± 0.15	0.804 ± 0.17
UniProt P08559 and related entries	1.09 ± 0.061	0.988 ± 0.033	0.931 ± 0.016	0.967 ± 0.13	0.963 ± 0.077	0.949 ± 0.059
UniProt P07954-2	0.9521 ± 0.0089	0.934 ± 0.034	0.923 ± 0.016	0.945 ± 0.025	0.913 ± 0.022	0.909 ± 0.05
PEPD (UniProt P12955)	1.04 ± 0.11	1.02 ± 0.083	0.999 ± 0.066	0.955 ± 0.1	1 ± 0.064	0.963 ± 0.047
BAG2 (UniProt O95816)	0.889 ± 0.044	0.79 ± 0.065	0.764 ± 0.088	0.768 ± 0.15	0.769 ± 0.092	0.755 ± 0.063
ATXN1L (UniProt P0C7T5)	0.953 ± 0.05	0.938 ± 0.04	0.969 ± 0.023	0.96 ± 0.0098	0.942 ± 0.064	0.9671 ± 0.0032

Target	NP40-soluble protein abundance (concentration: 1mM)	NP40-soluble protein abundance (concentration: 2mM)	NP40-soluble protein abundance (concentration: 4mM)	NP40-soluble protein abundance (concentration: 6mM)	NP40-soluble protein abundance (concentration: 8mM)	NP40-soluble protein abundance (concentration: 10mM)
FDX1 (UniProt P10109)	0.91 ± 0.061	0.954 ± 0.05	0.884 ± 0.051	0.977 ± 0.056	0.867 ± 0.017	0.865 ± 0.023
PLS3 (UniProt P13797)	0.937 ± 0.048	0.914 ± 0.035	0.986 ± 0.087	0.879 ± 0.061	0.918 ± 0.13	0.929 ± 0.029
FUCA1 (UniProt P04066)	1.01 ± 0.085	1.06 ± 0.25	0.963 ± 0.12	0.918 ± 0.22	0.969 ± 0.093	0.961 ± 0.021
ANXA5 (UniProt P08758)	0.922 ± 0.03	0.947 ± 0.042	0.891 ± 0.032	0.9 ± 0.1	0.889 ± 0.045	0.88 ± 0.051
UniProt O95822 and related entries	1.07 ± 0.19	1.04 ± 0.15	1.09 ± 0.14	0.943 ± 0.14	1.03 ± 0.059	1.03 ± 0.089
PCNA (UniProt P12004)	0.979 ± 0.018	0.95 ± 0.024	0.918 ± 0.011	0.969 ± 0.026	0.936 ± 0.022	0.923 ± 0.037
UniProt P11908 and related entries	1.04 ± 0.097	0.947 ± 0.072	0.923 ± 0.056	0.874 ± 0.059	0.971 ± 0.019	0.937 ± 0.094
ADA (UniProt P00813)	0.989 ± 0.19	0.894 ± 0.19	0.93 ± 0.15	0.9 ± 0.2	0.975 ± 0.11	0.806 ± 0.15
UniProt P10155	1.02 ± 0.083	0.984 ± 0.076	0.964 ± 0.057	0.941 ± 0.099	0.996 ± 0.031	0.959 ± 0.057
UniProt P01116-2|P01116	0.955 ± 0.085	0.983 ± 0.058	0.991 ± 0.042	0.982 ± 0.064	0.944 ± 0.087	0.993 ± 0.06
HARS (UniProt P12081)	0.978 ± 0.033	0.976 ± 0.041	0.952 ± 0.03	0.958 ± 0.058	0.954 ± 0.028	0.944 ± 0.044
HMBS (UniProt P08397)	0.961 ± 0.033	0.964 ± 0.039	0.94 ± 0.049	0.975 ± 0.039	0.929 ± 0.069	0.951 ± 0.059
UniProt P09132 and related entries	0.948 ± 0.085	0.967 ± 0.063	0.97 ± 0.059	1.05 ± 0.06	1.01 ± 0.031	1.01 ± 0.037
TTC4 (UniProt O95801)	0.993 ± 0.018	0.987 ± 0.0076	0.958 ± 0.022	0.97 ± 0.027	0.932 ± 0.021	0.925 ± 0.024
ADH5 (UniProt P11766)	0.925 ± 0.041	0.926 ± 0.034	0.874 ± 0.028	0.895 ± 0.064	0.883 ± 0.028	0.895 ± 0.027
CTSG (UniProt P08311)	0.986 ± 0.089	0.963 ± 0.13	0.957 ± 0.11	0.94 ± 0.14	0.89 ± 0.16	0.951 ± 0.16
UniProt P14735 and related entries	1.04 ± 0.12	1.01 ± 0.1	0.993 ± 0.078	0.93 ± 0.13	1.01 ± 0.05	0.985 ± 0.064
HCLS1 (UniProt P14317)	0.941 ± 0.062	0.937 ± 0.017	0.904 ± 0.025	0.989 ± 0.014	0.9 ± 0.032	0.908 ± 0.032
MTHFD1 (UniProt P11586)	1 ± 0.025	0.977 ± 0.029	0.957 ± 0.03	0.978 ± 0.058	0.989 ± 0.04	0.961 ± 0.038
ICAM2 (UniProt P13598)	0.921 ± 0.051	0.889 ± 0.051	0.876 ± 0.038	0.943 ± 0.012	0.869 ± 0.026	0.814 ± 0.089
